Measured values: PubChem BioAssay AID504847 (National Center for Advancing Translational Sciences (NCATS), 2011)
Where “and” joins values, the source holds several entries; their conditions need not be identical. Equal entries are not always repeated. Hit rate of the full screen: of about 400,000 compounds, about 3,700 (0.93%) were called active. Inconclusive results, whose numbers are uncertain, are shown with a selection of clear calls. Calls follow the shape of the dose curve; as a rule, active = well fitted inhibition curve with a large enough effect; inconclusive = small, poorly fitted or top-dose-only effect, or another doubt; inactive = no such curve, though single readings can be large or run the other way. Where the call is inconclusive, the potency comes from a doubtful curve fit.

By UniProt entry, the sequences of proteins in these tests, tags left out. Where a name states a change or a piece, a line headed by the entry shows the natural chain unless it says otherwise.
UniProt P11473: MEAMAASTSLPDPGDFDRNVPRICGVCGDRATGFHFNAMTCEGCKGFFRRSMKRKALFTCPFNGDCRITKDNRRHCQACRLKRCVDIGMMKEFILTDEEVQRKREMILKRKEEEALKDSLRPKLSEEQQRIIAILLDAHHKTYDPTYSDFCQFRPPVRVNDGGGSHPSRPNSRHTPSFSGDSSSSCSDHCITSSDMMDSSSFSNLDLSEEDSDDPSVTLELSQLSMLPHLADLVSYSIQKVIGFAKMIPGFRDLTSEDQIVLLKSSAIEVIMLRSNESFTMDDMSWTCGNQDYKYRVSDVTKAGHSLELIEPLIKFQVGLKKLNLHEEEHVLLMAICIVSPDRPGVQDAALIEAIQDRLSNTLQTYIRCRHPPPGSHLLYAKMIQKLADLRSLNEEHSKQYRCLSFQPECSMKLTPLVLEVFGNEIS

Target: Vitamin D3 receptor (Homo sapiens) (UniProt P11473)
Assay: Inhibitors of the vitamin D receptor (VDR): qHTS
Settings: VDR-SRC2-3 peptide fluorescence polarization, 2 h; max response, negative = inhibition: stronger effect = lower value
How it was run: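 The screen uses fluorescence polarization to detect compounds that interfere with recruitment of the SRC2-3 coactivator peptide to VDR; plates are read after 2 h at room temperature.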
% is scaled to controls: 0 for no effect and ±100 for the full control effect; potency is read from the fitted curve at half-maximal effect.

Row | SMILES | Potency | max response, negative = inhibition
1 | CC(=O)Nc1ccc(NC(=O)C2CC(=O)N(Cc3ccco3)C2)cc1 (stereo not drawn) | inconclusive: 89.1 µM [inhibitor, single point] | 
2 | CC1CN(CCOc2ccc(Cl)c(Cl)c2)CC(C)O1 (stereo not drawn) |  | inactive: 15.4%
3 | Cc1ccc(-n2c(C)cc3c2CC(C)(C)CC3=O)cc1C |  | inactive: -1.25%
4 | COc1ccc2c(CNCc3cccs3)c(C(=O)O)n(Cc3ccccc3)c2c1 |  | inactive: 3.41%
5 | COCCNc1nnc(SCC(=O)Nc2cc(-c3ccccc3)nn2-c2ccccc2)s1 |  | inactive: -16.7%
6 | COCCn1c(SCC(=O)c2ccc3c(c2)OCCO3)nnc1-c1ccoc1C |  | inactive: -16.4%
7 | CCOc1cc(CNc2ccc(O)cc2)ccc1OCc1ccc(Cl)cc1Cl | active: 31.6 µM | 
8 | CN(Cc1ccco1)c1nc(-c2ccc3c(c2)OCO3)nc2ccccc12 | inconclusive: 39.8 µM [inhibitor, partial curve, poor fit] | 
9 | O=C1OC(c2ccc(Cl)cc2)/C(=C(/O)c2ccccc2)C1=O (stereo not drawn) | inconclusive: 56.2 µM [inhibitor, partial curve, poor fit] | 
10 | Cc1cnc(CNc2cc(-c3ccc(C(=O)N(C)C)cc3)ncn2)cn1 | inconclusive: 79.4 µM [inhibitor, partial curve] | 
11 | Cc1ccc(C)c(N2CCN(CCCNC(=O)c3cnn(-c4ccccc4Cl)c3C3CCN(C(=O)OC(C)(C)C)CC3)CC2)c1 |  | inactive: 17.7%
12 | O=C(N/N=C/c1c(O)n(Cc2ccco2)c(=O)[nH]c1=O)c1ccccc1 |  | inactive: 1.56%
13 | O=C(O)Cn1c(=O)c2c3c(sc2n(Cc2ccc(Cl)cc2Cl)c1=O)CCCC3 | inconclusive: 7.94 µM [inhibitor, full curve, poor fit] | 
14 | CC(=O)Nc1cccc(NC(=O)CSc2nnc(Cc3cccn3C)n2-c2ccc(F)cc2)c1 |  | inactive: 6.58%
15 | Cc1ccc(S(=O)(=O)C(C#N)c2nc3ccccc3nc2N2CCCC2)cc1 (stereo not drawn) | inconclusive: 89.1 µM [inhibitor, single point] | 
16 | COc1cccc(N2C(=O)CC(Sc3nc(C)cc(C)n3)C2=O)c1 (stereo not drawn) |  | inactive: 11.3%
17 | O=C(Nc1ccc2nc3n(c(=O)c2c1)CCCCC3)C(=O)N1CCN(c2ccccc2F)CC1 | inconclusive: 39.8 µM [inhibitor, single point] | 
18 | Cc1cc2cc(CNC(=O)Nc3ccccc3)ccc2n1C |  | inactive: 13.4%
19 | CCCCCCCCCC(=O)NO |  | inactive: 0.103%
20 | COc1cc(/C=C2\C(=N)N3N=C(S(C)(=O)=O)SC3=NC2=O)ccc1OS(=O)(=O)c1ccc(C)cc1 | inconclusive: 44.7 µM [inhibitor, partial curve, poor fit] | 
21 | COC(=O)c1nc(-c2ccc(C)cc2)oc1N(C)C |  | inactive: -15.8%
22 | Cc1ccc(CCNC(=O)C2CCN(Cc3nc(-c4ccccc4C)oc3C)CC2)cc1 | inconclusive: 100 µM [inhibitor, single point] | 
23 | CCCN(C(=O)c1coc(=O)c2ccccc12)c1ccccc1C |  | inactive: -17.9%

Row | SMILES | Potency | max response, negative = inhibition
24 | Cc1cc(C)cc(NC(=O)c2ccc(S(=O)(=O)N(C)CC3CCCO3)cc2)c1 (stereo not drawn) |  | inactive: -6.36%
25 | CSc1nc2nc3c(cc2c(=O)[nH]1)C(O)Oc1ccc(C)cc1-3 (stereo not drawn) | inconclusive: 44.7 µM [inhibitor, partial curve, poor fit] | 
26 | CCn1c(=O)cc(OCC(=O)Nc2cc(Cl)c(OC)cc2OC)c2ccccc21 | inconclusive: 100 µM [inhibitor, single point] | 
27 | COCCNC(=O)CS(=O)Cc1nc(-c2ccccc2C)oc1C (stereo not drawn) |  | inactive: -19.4%
28 | CC(=O)NCC(=O)N(Cc1ccco1)C1(C(=O)NC2CCCCC2)CCCCC1 | inconclusive: 44.7 µM [inhibitor, partial curve, poor fit] | 
29 | O=C1CCSC2(C(=O)N(Cc3ccc(F)cc3)c3ccccc32)N1c1ccc(F)c(F)c1 (stereo not drawn) | inconclusive: 35.5 µM [inhibitor, single point] | 
30 | CC(=O)N1/C(=C/c2ccc(N(C)C)cc2)C(=O)c2ccccc21 | active: 31.6 µM | 
31 | COc1cccc(NC(=O)Cn2c(=O)n(-c3ccc(C)cc3)c(=O)c3ccc(C(=O)NCc4ccco4)cc32)c1 | inconclusive: 89.1 µM [inhibitor, partial curve, poor fit] | 
32 | O=C(CCl)N1N=C(c2ccco2)CC1c1ccco1 (stereo not drawn) | inconclusive: 50.1 µM [inhibitor, partial curve, poor fit] | 
33 | CCn1nnnc1SCC(=O)N1CCc2ccccc21 | inconclusive: 100 µM [inhibitor, single point] | 
34 | Cc1ccc(Sc2ccc(/C=C3/C(=O)NN(c4ccccc4)C3=O)o2)cc1 | inconclusive: 79.4 µM [inhibitor, single point] | 
35 | Nn1c(SCC(=O)NCc2ccc3c(c2)OCO3)nnc1C(F)(F)F |  | inactive: 7.47%
36 | CCNS(=O)(=O)c1ccc(-c2ccc(-n3cnnn3)cc2)cc1 | inconclusive: 89.1 µM [inhibitor, single point] | 
37 | Cc1c(C(=O)N2CCN(c3cccc(Cl)c3)CC2)cccc1[N+](=O)[O-] | inconclusive: 39.8 µM [inhibitor, single point] | 
38 | COc1ccc(C(=O)/C=C/c2ccc(OC)c(O)c2)c(F)c1 | active: 89.1 µM | 
39 | O=C(c1ccc2nc(Cc3ccccc3F)oc2c1)N1CC[C@H](O)C1 | inconclusive: 20 µM [inhibitor, partial curve] | 
40 | COc1cc(C)c2c(c1C=O)Oc1c(c(C)c(O)c3c1C(O)OC3=O)OC2=O (stereo not drawn) | active: 28.2 µM and active: 44.7 µM | 
41 | O=c1c(=Nc2ccccc2O)c(=O)c2ccccc12 | inconclusive: 39.8 µM [inhibitor, single point] | 
42 | CCOc1ccc(CN2CCN(Cc3c[nH]c4ccccc34)CC2)cc1 | inconclusive: 79.4 µM [inhibitor, single point] | 
43 | CCN(CC)c1nc(N)c2c(N)n(-c3ccccc3C)c(=S)c(C#N)c2c1C#N | inconclusive: 89.1 µM [inhibitor, partial curve, poor fit] | 
44 | Cc1ccc(CNS(=O)(=O)NCc2cccs2)cc1 | inconclusive: 2.24 µM [inhibitor, full curve, poor fit] | 
45 | O=[N+]([O-])c1ccc(-c2nc(=S)c3c(o2)CCCC3)cc1 | inconclusive: 100 µM [inhibitor, single point] | 
46 | Nc1c(-c2ccccc2)cnc2c(-c3ccccc3)cnn12 |  | inactive: -18%

Row | SMILES | Potency | max response, negative = inhibition
47 | CNc1ncncc1-c1ccccc1C(F)(F)F | inconclusive: 39.8 µM [inhibitor, partial curve, poor fit] | 
48 | Cc1ccc(Nc2ncccc2C(=O)O)cc1C | inconclusive: 50.1 µM [inhibitor, partial curve, poor fit] | 
49 | CNc1ccc(Br)cc(C(=O)/C=C/c2ccc(Cl)cc2Cl)c1=O | inconclusive: 56.2 µM [inhibitor, partial curve, poor fit] | 
50 | N/C(Cc1cccc2ccccc12)=N\OC(=O)c1ccc2c(c1)OCO2 | inconclusive: 5.01 µM [inhibitor, partial curve, poor fit] | 
51 | CCC(=O)N(CCC(c1ccco1)C(C)C)Cc1ccccc1 (stereo not drawn) | inconclusive: 70.8 µM [inhibitor, single point] | 
52 | COc1cc(-c2ccc(Nc3ccccc3C(=O)O)c(OC)c2)ccc1Nc1ccccc1C(=O)O | inconclusive: 89.1 µM [inhibitor, partial curve, poor fit] | 
53 | Cc1ccc2c(c1)sc(C)[n+]2CCCS(=O)(=O)[O-] | active: 28.2 µM | 
54 | COc1ccc(N2CCN(C(=O)C3CCN(C(=O)c4cccc(Cl)c4)CC3)CC2)cc1 |  | inactive: -10.4%
55 | CC(=O)Nc1ccc(NC(=O)COC(=O)c2c3c(nc4ccccc24)CCN(Cc2ccccc2)C3)cc1 | inconclusive: 100 µM [inhibitor, partial curve, poor fit] | 
56 | CS(=O)(=O)Nc1cccc(-c2ccc3ncnc(NC4CC4)c3c2)c1 | inconclusive: 89.1 µM [inhibitor, partial curve, poor fit] | 
57 | CCN(CC)c1nc(C(F)(F)F)nc2c1nnn2Cc1ccccc1 |  | inactive: -6.12%
58 | CCOC(=O)c1c(SCCN2CCCCC2)n(-c2ccccc2)c(=S)n(-c2ccccc2)c1=O | inconclusive: 89.1 µM [inhibitor, single point] | 
59 | Cc1cccc(NC(c2ccc(O)cc2)c2ccc3ccc(C)nc3c2O)n1 (stereo not drawn) | active: 44.7 µM | 
60 | Cc1ccc2c(c1)c1c3n2CCN(C(=O)CCl)C3CCC1 (stereo not drawn) | inconclusive: 12.6 µM [inhibitor, full curve] | 
61 | C=C(C)C(=O)/C=C/CCC/C=C/C(=O)OCC | inconclusive: 44.7 µM [inhibitor, partial curve] | 
62 | CCOc1ccc(Nc2nc3cc(S(=O)(=O)N(CC)CC)ccc3o2)cc1 | active: 79.4 µM | 
63 | Cc1ccc(-c2ccc(CCC(=O)O)n2-c2ccc(C(=O)O)cc2)cc1 | inconclusive: 79.4 µM [inhibitor, partial curve, poor fit] | 
64 | O=C(O)c1csc(-c2cccc(Cl)c2)n1 |  | inactive: -22.8%
65 | O=C(CN(CC1CCCO1)C(=O)CNS(=O)(=O)c1ccc(Cl)cc1)NCc1ccco1 (stereo not drawn) |  | inactive: -10.1%
66 | O=C1CSC(=S)N1N=Cc1ccc(Cl)cc1Cl | inconclusive: 100 µM [inhibitor, single point] | 
67 | N#C/C(=C\c1cccc([N+](=O)[O-])c1)C(=O)NCc1ccc(Cl)cc1 | active: 39.8 µM | 
68 | O=C(O/N=C1/CCCc2occc21)c1ccc(F)cc1 | inconclusive: 10 µM [inhibitor, partial curve, poor fit] | 

Some of these compounds in order of number of heavy atoms, descending:
Row | SMILES | Potency | max response, negative = inhibition
8 | CN(Cc1ccco1)c1nc(-c2ccc3c(c2)OCO3)nc2ccccc12 | inconclusive: 39.8 µM [inhibitor, partial curve, poor fit] | 
35 | Nn1c(SCC(=O)NCc2ccc3c(c2)OCO3)nnc1C(F)(F)F |  | inactive: 7.47%
66 | O=C1CSC(=S)N1N=Cc1ccc(Cl)cc1Cl | inconclusive: 100 µM [inhibitor, single point] | 
64 | O=C(O)c1csc(-c2cccc(Cl)c2)n1 |  | inactive: -22.8%
